## Results of single-concentration screens

Protein sequences, listed by entry. Tags and fused reporters are not part of them. Residues count along the entry.
UniProt A4I591, 1-473: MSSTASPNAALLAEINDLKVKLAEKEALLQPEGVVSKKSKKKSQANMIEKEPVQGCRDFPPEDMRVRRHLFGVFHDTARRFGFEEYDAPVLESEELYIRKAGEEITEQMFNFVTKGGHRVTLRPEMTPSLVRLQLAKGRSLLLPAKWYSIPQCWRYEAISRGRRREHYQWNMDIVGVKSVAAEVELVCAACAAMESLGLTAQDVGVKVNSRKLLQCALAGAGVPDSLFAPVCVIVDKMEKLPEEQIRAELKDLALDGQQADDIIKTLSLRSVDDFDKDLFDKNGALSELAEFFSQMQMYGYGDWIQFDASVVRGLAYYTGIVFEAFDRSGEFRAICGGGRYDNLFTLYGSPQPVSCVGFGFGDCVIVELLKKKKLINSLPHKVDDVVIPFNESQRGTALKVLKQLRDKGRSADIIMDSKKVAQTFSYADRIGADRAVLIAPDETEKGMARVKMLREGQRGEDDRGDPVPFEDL
UniProt Q4DA54, 1-478: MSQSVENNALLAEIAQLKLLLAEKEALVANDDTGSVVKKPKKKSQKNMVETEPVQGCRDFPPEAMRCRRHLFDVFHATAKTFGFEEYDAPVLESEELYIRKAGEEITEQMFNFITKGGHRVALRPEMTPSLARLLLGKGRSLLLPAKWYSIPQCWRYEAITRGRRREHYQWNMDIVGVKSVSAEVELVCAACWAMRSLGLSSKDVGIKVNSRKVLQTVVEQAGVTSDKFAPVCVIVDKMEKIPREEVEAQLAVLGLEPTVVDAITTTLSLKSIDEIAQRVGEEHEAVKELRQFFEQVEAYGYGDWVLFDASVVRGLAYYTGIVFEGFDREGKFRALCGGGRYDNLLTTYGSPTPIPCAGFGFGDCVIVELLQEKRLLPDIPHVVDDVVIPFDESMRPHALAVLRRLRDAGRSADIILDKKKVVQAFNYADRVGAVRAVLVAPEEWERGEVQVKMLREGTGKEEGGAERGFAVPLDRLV

LiHisRS: 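Enzyme assay of histidyl-tRNA synthetase; the read-out is not stated. Target: Histidine-tRNA ligase, Leishmania infantum (UniProt A4I591). Concentration: 30 µM. Direction is inferred from retests: higher values go with stronger inhibition. The assay is labelled LdHisRS but filed under L. infantum. Of about 69,000 compounds tested this way, about 410 (0.6%) reached 50% or more in at least one test.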
TcHisRS: 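Histidine-tRNA ligase, Trypanosoma cruzi CL Brener (UniProt Q4DA54). Enzyme assay of histidyl-tRNA synthetase; the read-out is not stated. Compounds at 30 µM. Higher reads as stronger inhibition (inferred: compounds with an IC50 in retests scored well above the rest). Size under these conditions: about 69,000 compounds, about 31 of them at 50% or above in at least one test.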

The filed quantity is “Percent Effect” (%). The controls that fix the scale are not given in the record; negative values are as filed. Compounds were drawn at random from those tested, without regard to their results.

{"compound": "COc1ccc(CC(=O)N2C[C@H]3CN(Cc4ccccn4)C[C@H]3C2)cc1", "LiHisRS": 13.46, "TcHisRS": 6.796}
{"compound": "CC(C)(C)OC(=O)NCCNC(=O)c1ccc2cc[nH]c2c1", "LiHisRS": 20.35, "TcHisRS": 6.637}
{"compound": "Cc1noc(CN2CC=C(c3c[nH]c4ncccc34)CC2)n1", "LiHisRS": 10.71, "TcHisRS": 12.28}
{"compound": "O=C(N1CCOCC1)N1C[C@@H]2OCCN(C(=O)c3ccco3)[C@@H]2C1", "LiHisRS": 8.772, "TcHisRS": 5.464}
{"compound": "Cc1cc(C(=O)N2CCn3nc(C(=O)NC4CC4)cc3C2)nc(C)n1", "LiHisRS": 12.7, "TcHisRS": 3.59}
{"compound": "Cc1nnc(N2CCCC3(CN(Cc4cccnc4)CCO3)C2)o1", "stereo": "stereo not shown", "LiHisRS": 9.677, "TcHisRS": 5.263}
{"compound": "COc1ccc(C(C)N2CCC(CNC(C)=O)CC2)cc1Cl", "stereo": "stereo not shown", "LiHisRS": -30.77, "TcHisRS": 0}
{"compound": "COc1ccc(-c2noc(Cn3cc(C)cn3)n2)c(OC)c1OC", "LiHisRS": 9.333, "TcHisRS": 2.89}
{"compound": "Cc1cc(CCCC(=O)NC2CCN(C)C2=O)c(C)s1", "stereo": "stereo not shown", "LiHisRS": 3.175, "TcHisRS": 0}
{"compound": "Brc1ccc(CNCc2nnc3n2CCC3)s1", "LiHisRS": 26.67, "TcHisRS": -5.195}
{"compound": "CNS(=O)(=O)Cc1ccc(CNC(=O)c2cccc(C)n2)cc1", "LiHisRS": 27.4, "TcHisRS": 3.053}
{"compound": "CCC(C(=O)N(C)Cc1cc(-c2ccccc2)n[nH]1)n1cccn1", "stereo": "stereo not shown", "LiHisRS": 21.69, "TcHisRS": 7.182}
{"compound": "NC(=O)C1CCN(C(=O)Cn2ccc3cc(Br)ccc32)CC1", "LiHisRS": -5.263, "TcHisRS": 2.924}
{"compound": "CN(C)CC(=O)N1CCCC2(CCN(c3ccccc3)C2=O)C1", "stereo": "stereo not shown", "LiHisRS": 5.769, "TcHisRS": 0}
{"compound": "COc1ccc(Cl)cc1-c1cc(NC(=O)C2COCCO2)[nH]n1", "stereo": "stereo not shown", "LiHisRS": 15.38, "TcHisRS": 5.946}
{"compound": "Cc1cc(C)c2cc(CNC3CCCCC3)c3nn(C)c(=O)n3c2c1", "LiHisRS": 28.87, "TcHisRS": 12.22}
{"compound": "CNC(=O)CN1CCOCC2(C1)CN(Cc1csnn1)CCO2", "stereo": "stereo not shown", "LiHisRS": 10, "TcHisRS": -3.093}
{"compound": "Cc1oc(-c2ccsc2)nc1CN1CCCC(c2ccnn2C)C1", "stereo": "stereo not shown", "LiHisRS": 17.28, "TcHisRS": -0.6135}
{"compound": "COc1cccc2c1ccn2CC(=O)N[C@@H](CCSC)C(=O)O", "LiHisRS": 34.95, "TcHisRS": 2.732}
{"compound": "Clc1ccccc1Cn1cc(CNC2CCc3ncnn3C2)cn1", "stereo": "stereo not shown", "LiHisRS": 15.38, "TcHisRS": 4.843}
{"compound": "O=C(NCC1CC1)[C@@H]1CC[C@@H]2[C@@H](CCN2CCOCc2ccccc2)O1", "LiHisRS": 14, "TcHisRS": -1.031}
{"compound": "CC1=C(C(=O)NCc2cccnc2-n2cnc3ccccc32)OCCO1", "LiHisRS": 8.333, "TcHisRS": 1.02}
{"compound": "CC(C)c1ccc(NS(=O)(=O)CC2=NC(=O)n3cccc3C2=O)cc1", "LiHisRS": -7.895, "TcHisRS": -2.924}
{"compound": "Cc1ccc(N2CC[C@@H]3[C@@H]2CCN3C(=O)Cc2cccs2)nn1", "LiHisRS": 8.108, "TcHisRS": 0}
{"compound": "Cc1nn(C)c(Cl)c1C1CCCN1CC(=O)Nc1cccnc1", "stereo": "stereo not shown", "LiHisRS": 6.14, "TcHisRS": 2.035}
{"compound": "COc1ccc(S(=O)(=O)NCCC(O)c2cc(C)oc2C)c(C)c1", "stereo": "stereo not shown", "LiHisRS": 6.957, "TcHisRS": 0}
{"compound": "COCc1n[nH]c2c1CN(C(=O)c1ccncc1)C2", "LiHisRS": 1.724, "TcHisRS": 1.266}
{"compound": "CCOc1nnc(CN(Cc2ccccc2)CC(O)c2ccco2)s1", "stereo": "stereo not shown", "LiHisRS": 14.04, "TcHisRS": 7.563}
{"compound": "CC(=O)N1CCN(C(=O)C2CCN(c3cccnn3)C2)CC1", "stereo": "stereo not shown", "LiHisRS": 17.89, "TcHisRS": 6.716}
{"compound": "CCC(C)(CC(=O)OC)NCc1c(C)noc1C", "stereo": "stereo not shown", "LiHisRS": -3.922, "TcHisRS": -1.235}
{"compound": "Cc1nn(C)c(C)c1C1CCCN1C(=O)CCc1ccco1", "stereo": "stereo not shown", "LiHisRS": 15.38, "TcHisRS": 5.714}
{"compound": "COc1cc(CNCC(C)O)cc(Cl)c1OCc1ccc(C)cc1", "stereo": "stereo not shown", "LiHisRS": -4.918, "TcHisRS": 5.6}
{"compound": "Cc1cnn(CC2CN(CC(=O)Nc3ccncc3)CCO2)c1", "stereo": "stereo not shown", "LiHisRS": 13.04, "TcHisRS": 0.5634}
{"compound": "CCc1noc(C(C)N2CCN(CC)CC2)n1", "stereo": "stereo not shown", "LiHisRS": 10.34, "TcHisRS": 2.26}
{"compound": "CNC(=O)c1ccc(-c2ccccc2)n1C", "LiHisRS": 14.04, "TcHisRS": 7.563}
{"compound": "COC(=O)C1CCCCN1C(=O)c1ccc(N(C)C)cc1F", "stereo": "stereo not shown", "LiHisRS": 6.806, "TcHisRS": 3.743}
{"compound": "CC(SCC(=O)NC(N)=O)c1ccccc1F", "stereo": "stereo not shown", "LiHisRS": 19.35, "TcHisRS": 9.195}
{"compound": "c1ccc(-c2nc(CNCC3CCCN3c3cccnn3)co2)cc1", "stereo": "stereo not shown", "LiHisRS": 33.93, "TcHisRS": 25.44}
{"compound": "COCCOc1ccc(NC(=O)C2CCC2)cn1", "LiHisRS": -14.61, "TcHisRS": 4.511}
{"compound": "CC(O)c1cccc(N2CCC3(CCC(=O)N(CC(N)=O)C3)CC2)n1", "stereo": "stereo not shown", "LiHisRS": 4.918, "TcHisRS": -1.01}
{"compound": "CCc1nccn1-c1nccnc1C1CCN(C(=O)COC)CC1", "LiHisRS": 36.55, "TcHisRS": 12.17}
{"compound": "CC(C)c1nnc2n1CCN(C(C(N)=O)c1ccc(F)cc1)C2", "stereo": "stereo not shown", "LiHisRS": 14.61, "TcHisRS": 8.808}
{"compound": "Cc1nnc(N2CCOC(Cn3cccn3)C2)c(C#N)c1C", "stereo": "stereo not shown", "LiHisRS": 29.6, "TcHisRS": 0.3802}
{"compound": "CCc1cnc(CNC(=O)N2CCCC(c3ncc[nH]3)C2)s1", "stereo": "stereo not shown", "LiHisRS": 9.091, "TcHisRS": 1.478}
{"compound": "Cc1cccc(C2(CNC(=O)C(C)S(C)(=O)=O)CCCC2)c1", "stereo": "stereo not shown", "LiHisRS": 14.91, "TcHisRS": 13.79}
{"compound": "CC(C)(C)NS(=O)(=O)c1ccccc1CNCc1ccccc1", "LiHisRS": 31.43, "TcHisRS": 7.792}
{"compound": "COc1ncccc1NC(=O)c1[nH]nc(C(C)C)c1Br", "LiHisRS": 35.21, "TcHisRS": 1.911}
{"compound": "O=C(c1cccs1)N1CCC2(CC1)CC(Oc1ccccc1)CO2", "stereo": "stereo not shown", "LiHisRS": 18.92, "TcHisRS": -3.483}

The last 3 entries again:

Compound	LiHisRS	TcHisRS
CC(C)(C)NS(=O)(=O)c1ccccc1CNCc1ccccc1	31.43	7.792
COc1ncccc1NC(=O)c1[nH]nc(C(C)C)c1Br	35.21	1.911
O=C(c1cccs1)N1CCC2(CC1)CC(Oc1ccccc1)CO2 (stereo not shown)	18.92	-3.483

Measurements from “University of Dundee, Small-Polar-MMV Screening Library” (2021), ChEMBL document CHEMBL3988442.